This test can be described thus: qHTS Assay for Lipid Storage Modulators in Drosophila S3 Cells.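 As to cell number change: cells counted by Cell Tracker Red CMTPX staining in the red channel.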 As to conditions: BODIPY lipid droplet fluorescence, 18-24 h; for cell number change: measured here: cell count max response, cells fed with added oleic acid. Put shortly: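 Laser-scanning cytometry quantifies lipid droplet accumulation (500–530 nm total intensity; droplet/cell object ratio) in oleic acid-fed (400 uM added) Drosophila S3 cells treated with a concentration series. 20 uM Triacsin C defined 100% inhibition.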
(In general: Quantitative high-throughput screening tests each substance at several concentrations.)

The mark [1] stands for this setting: measured here: cell number channel AC50, cells fed with added oleic acid.
The mark [2] stands for this setting: measured here: lipid fluorescence (Fed channel) AC50, cells fed with added oleic acid.

Some of the results follow. These are further read-outs of the screen, such as a control signal, another cell line or another target. No call is given for them. Compounds called inactive in the main read-out are mostly missing here. Words in brackets tell the shape of the fitted curve; partial curves, single points and poor fits give uncertain potencies.

The AC50 is the concentration giving half of the maximal activity seen. A high value points to weaker potency.

For `O=C(Nc1ccc2c(c1)oc1ccccc12)c1ccc2c(c1)OCO2`, the cell number change is -51.2%. The AC50 under setting [1] was 20.6 µM [falling, partial curve]. Moreover, under setting [2], the AC50 was 5.17 µM [falling, full curve, poor fit].
On to `COc1cc(OC)cc(C(=O)NC(=S)N2CCCCC2c2cccnc2)c1` (stereo unspecified), for which the cell number change was -1.62%. Besides, the AC50 under setting [2] was 29.1 µM [falling, single point].
On to `Nc1c(N2CCCCC2)c(=O)[nH]c(=O)n1-c1ccccc1`, for which the cell number change was -7.75%. For the same compound, the half-maximal activity concentration (AC50) under setting [2] was 29.1 µM [falling, partial curve].
Take `CCOC(=O)C1CCN(C(=S)Nc2cccc(C)c2C)CC1`: the cell number change stood at 0.485%. The half-maximal activity concentration (AC50) under setting [2] was 29.1 µM [falling, single point].
As to `CCC(=NCc1ccccc1)c1c(C(F)(F)F)[nH]n(-c2nc3ccccc3s2)c1=O`, the cell number change came to 8.55%.
As for `CCC(C)(C(=O)NC1CCCC1)N(C(=O)CNC(C)=O)c1ccc(C)cc1` (stereo unspecified), the cell number change was -8.25%.
Regarding `CCOc1ccccc1N1CCN(C(=O)c2cccc(S(=O)(=O)N3CCOCC3)c2)CC1`, the cell number change is -7.41%. In addition, the AC50 under setting [1] is 0.731 µM [falling, single point]. The AC50 under setting [2] is 1.03 µM [rising, partial curve, poor fit].
With `CC(C)(C)c1ccc(C(=O)Nc2ccc(C(=O)N3CCOCC3)cc2)cc1`, the cell number change was -8.72%.
Take `C(=C\c1ccc(/C=C/c2ccccc2)nn1)/c1ccccc1`: the cell number change was found to be 3.64%.
In the case of `COC(=O)c1ccc(C(=O)OC)c(NS(C)(=O)=O)c1`, the cell number change was 6.49%.
Same read-out and setting: with `Cc1ccc(C(=O)Nc2ccc(F)cc2)cc1NC1=NC2CS(=O)(=O)CC2S1` (stereo unspecified) the figure was 9.28%; with `Cc1ccc(N(C(C)C(=O)N2CCCC2)S(C)(=O)=O)cc1` (stereo unspecified), 33.8%.
With `COc1ccc(/C=C/CN2CCN(Cc3cccc(OC)c3)C(CCO)C2)cc1` (stereo unspecified), the cell number change is -7.73%. Besides, the AC50 under setting [1] was 2.31 µM [falling, single point].
In the case of `COc1ccc(NC(=O)C2CCCN(S(=O)(=O)c3cccnc3)C2)cc1` (stereo unspecified), the cell number change was -12.9%. Under setting [2], the AC50 is 0.82 µM [rising, partial curve].
In the case of `Cc1cc(Cl)cc2c(N=Nc3ccccc3C(=O)O)c(O)[nH]c12`, the cell number change worked out at 12.9%.
For the compound `O=C(C[n+]1cn(C(F)F)c2ccccc21)c1ccc(Br)cc1`, the cell number change was determined as 65.5%. In addition, the AC50 under setting [1] is 32.6 µM [rising, partial curve].
Regarding `COC(=O)c1ccc(CNC(=O)C2CCC(=O)N(C3CCCCCC3)C2)cc1` (stereo unspecified), the AC50 under setting [2] is 29.1 µM [rising, single point].
In the case of `Cc1cc(C(=O)N/N=C/c2cccs2)no1`, the cell number change stood at 28.2%. For the same compound, the AC50 under setting [1] was 0.00517 µM [rising, full curve, poor fit]. Moreover, the AC50 under setting [2] was 0.00461 µM [rising, full curve, poor fit].
With `CCc1ccc2nc(NC3=NCN(CCN4CCOCC4)CN3)nc(C)c2c1`, the cell number change is 9.39%.
As to `Fc1ccccc1Nc1nc(Cl)nc(Cl)n1`, the AC50 under setting [2] is 1.46 µM [rising, full curve, poor fit].
Consider `Cc1nn(C)c(C(=O)N/N=C/c2cccnc2)c1Cl`, for which the cell number change amounted to 1.17%.
In the case of `COc1ccc(NC(=O)c2sc3nc(N4CCOCC4)c4c(c3c2N)CC(C(C)C)OC4)c(OC)c1` (stereo unspecified), the cell number change was -3.36%.
As for `Cc1cc(C)c[n+](C(C)C(=O)c2ccc(-c3ccccc3)cc2)c1` (stereo unspecified), the cell number change is -29.4%. Further, under setting [2], the AC50 was 29.1 µM [falling, single point].
In the case of `Cn1nc(C(=O)NCc2ccc(F)cc2)c2c1-c1ccccc1S(=O)(=O)C2`, the cell number change was -22.6%. Besides, the AC50 under setting [2] was 0.259 µM [falling, full curve, poor fit].
As for `O=C(NNC(=O)c1ccccc1F)c1cccc(-n2cccc2)c1`, under setting [2], the AC50 was 0.461 µM [falling, single point].
For the compound `O=C(/C=C/c1ccc(Cl)cc1Cl)N1CCc2ccccc21`, the AC50 by setting is: under setting [1], 0.366 µM [rising, partial curve, poor fit]; under setting [2], 0.326 µM [rising, full curve, poor fit].
With `C[C@@H]1C=C(C(=O)N2CCN(Cc3ccccc3)CC2)O[C@H](OCc2ccc(CO)cc2)C1`, the cell number change was -1.13%.
Turning to `COc1ccc(CNC(=O)CCn2nc(C)c3c(C)n(-c4ccccc4)nc3c2=O)c(OC)c1`, the AC50 under setting [1] is 0.231 µM [rising, full curve, poor fit].
`O=C(CSc1nnnn1-c1ccc(Cl)cc1)N1CCc2ccccc2C1`: the cell number change was -21.1%.
As to `COc1ccc(-n2c(CN3CCN(c4ccccc4OC)CC3)nc3ccc([N+](=O)[O-])cc3c2=O)c(OC)c1`, the cell number change is -6.94%.
In the case of `CC(C)[C@H](NC(=O)c1ccco1)C(=O)NC12CC3CC(CC(C3)C1)C2`, the cell number change was 68.3%. The AC50 under setting [1] was 29.1 µM [rising, single point]. Further, under setting [2], the AC50 is 29.1 µM [rising, single point].
Turning to `COc1ccc(-n2c(Cc3cccn3C)nnc2SCC(=O)Nc2cccc(Cl)c2)cc1`, the cell number change worked out at 18.9%. In addition, the AC50 under setting [1] was 0.082 µM [rising, full curve, poor fit].
In the case of `CCCOc1ccc(Br)cc1/C=N/NC(=O)c1cc(OC)c(OC)c(OC)c1`, the cell number change was 13.6%.
For `CCOc1ccc(C(=O)CCC(=O)Nc2ncccc2O)cc1`, the cell number change worked out at 36.1%. The AC50 under setting [1] is 11.6 µM [rising, partial curve, poor fit].
Turning to `COC(=O)c1[nH]c2ccc(C)cc2c1NC(=O)CCN1CCN(C2CCCCC2)CC1`, the cell number change is -6.03%. In addition, the AC50 under setting [2] is 23.1 µM [falling, partial curve].
For `COc1ccc(-c2nc(CS(=O)CC(=O)NC3CCCCC3)c(C)o2)cc1` (stereo unspecified), the cell number change is -2.06%. Also, the AC50 under setting [2] is 0.58 µM [falling, single point].
`Cc1nn(C(=O)c2cccc([N+](=O)[O-])c2)c(C)c1Br`: the cell number change was -8.33%. In addition, the AC50 under setting [2] is 29.1 µM [falling, single point].
On to `COc1cc(NC(=O)C2CCN(S(=O)(=O)c3ccc4c(c3)CC(C)N4C(C)=O)CC2)cc(OC)c1OC` (stereo unspecified), for which the cell number change is 27.7%. Also, under setting [2], the AC50 is 18.4 µM [rising, single point].
Take `CCN(C(=O)COC(=O)c1cc(-c2cccs2)nc2ccccc12)C1CCS(=O)(=O)C1` (stereo unspecified): the cell number change came to 20.3%.
For `COc1ccc(CN(C)C(=O)c2oc3ccccc3c2CSC)cc1F`, the cell number change came out at 15.1%. The half-maximal activity concentration (AC50) under setting [2] is 29.1 µM [falling, single point].
Turning to `C=CCn1c(SC(C)C(N)=O)nc2sc(CC)cc2c1=O` (stereo unspecified), the cell number change amounted to 30.4%.
As to `O=C(N/N=C/c1ccc[nH]1)c1cc(-c2ccc(Cl)cc2)nc2ccccc12`, the cell number change was found to be 17%.
For the compound `COc1ccc(CNc2oc(Cc3cccc4ccccc34)nc2C#N)cc1`, the cell number change is -15.1%. Moreover, the AC50 under setting [1] is 6.51 µM [rising, single point].
For `COc1ccc(CCNC(=O)/C=C/c2ccco2)cc1OC`, the cell number change was -12.6%. Besides, the AC50 under setting [2] was 29.1 µM [falling, single point].
Turning to `O=C(N1CCCCC1)N1CCC(c2nc3ccccc3[nH]2)CC1`, the cell number change was -8.76%.
Turning to `Cc1ccc(S(=O)(=O)N2CCOC2CNC(=O)C(=O)NCc2ccc3c(c2)OCO3)cc1` (stereo unspecified), the cell number change was determined as 26.6%. Further, the AC50 under setting [2] was 18.4 µM [rising, partial curve].
For the compound `COc1cc(/C=N/Nc2nc(=O)[nH]nc2C)cc(OC)c1O`, the cell number change was determined as 19.5%. The AC50 under setting [2] was 4.61 µM [rising, single point].
Take `Cc1ccc(S(=O)(=O)Nc2ccc(-c3csc(-c4ccccc4)n3)cc2)cc1`: the cell number change was -50.9%. In addition, the AC50 under setting [1] is 16.4 µM [falling, single point]. Under setting [2], the AC50 is 2.06 µM [falling, partial curve].
Take `CCOC(=O)C1CCN(C(=O)C(C)Oc2ccc(Br)cc2)CC1` (stereo unspecified): the cell number change is -26.1%. In addition, the AC50 under setting [2] is 16.4 µM [rising, partial curve].
`CCc1c(C)nc(N2CCOCC2)[nH]c1=O`: the AC50 under setting [1] is 4.61 µM [falling, partial curve] and the concentration at half-maximal activity (AC50) under setting [2] was 4.61 µM [falling, partial curve].
As to `COc1nc(Nc2ccc(C(C)=O)cc2)nc(OC)n1`, the AC50 under setting [2] was 0.58 µM [rising, single point].
Regarding `CNCCCCOc1ccc(C(C)(C)C)cc1Cl`, the cell number change is -20.8%.
Consider `COC(=O)[C@@]1(Cc2ccc(OC)cc2)[C@H]2c3cc(C(=O)N4CCCC4)n(CCN4CCNC4=O)c3C[C@H]2CN1C(=O)c1ccccc1`, for which the cell number change was found to be 17.5%. The AC50 under setting [2] was 20.6 µM [rising, single point].
As for `COCC(C)n1c(SCc2ccc(C(=O)OC)cc2)nc2ccccc2c1=O` (stereo unspecified), the cell number change was -6.31%. Under setting [2], the AC50 is 0.58 µM [rising, single point].
With `Cc1ccc(C)c(CSCC(=O)NCc2cccs2)c1`, the cell number change worked out at 1.46%. For the same compound, the AC50 under setting [1] is 0.0259 µM [rising, full curve, poor fit]. Moreover, under setting [2], the AC50 is 0.058 µM [rising, full curve, poor fit].
Consider `O=c1c2ccccc2[nH]c(=S)n1Cc1ccc2c(c1)OCO2`, for which the cell number change is -33.1%. Also, under setting [1], the AC50 is 25.9 µM [falling, single point]. Besides, the AC50 under setting [2] is 25.9 µM [falling, partial curve].
Regarding `CC(C)Cn1c(N)c(C(=O)COC(=O)c2ccc3ccccc3n2)c(=O)n(C)c1=O`, the cell number change is -11.2%.
For `CCNc1ccc(Br)cc(C(=O)/C=C/c2ccc3c(c2)OCO3)c1=O`, the cell number change came to 6.21%. The AC50 under setting [2] was 0.58 µM [rising, partial curve, poor fit].
On to `Cc1cc(=O)oc2cc(NC(=O)c3cc4ccccc4o3)ccc12`, for which the cell number change came to 11.1%. Further, the AC50 under setting [2] is 6.51 µM [rising, partial curve, poor fit].
In the case of `CC1(c2ccc(Cl)cc2)NC(=O)N(CN2CCOCC2)C1=O` (stereo unspecified), the cell number change was 14.5%. In addition, the AC50 under setting [2] was 29.1 µM [rising, single point].
As to `CCCCCSc1nnc2c(n1)OC(C)N(C(C)=O)c1ccccc1-2` (stereo unspecified), the cell number change was found to be 30.6%. Moreover, the AC50 under setting [1] is 20.6 µM [rising, single point]. Moreover, under setting [2], the AC50 is 1.03 µM [rising, full curve, poor fit].
Regarding `Cc1cccc(-n2c(SCC(=O)NCc3ccc4c(c3)OCO4)nc3ccccc3c2=O)c1`, the cell number change turned out to be 37.3%. Besides, the AC50 under setting [1] was 0.731 µM [rising, full curve]. The AC50 under setting [2] was 0.92 µM [rising, full curve].
Consider `CCOC(=O)COc1ccc(Br)cc1/C=C1\SC(N)=NC1=O`, for which, under setting [2], the AC50 was 6.51 µM [falling, partial curve].
As for `COc1ccccc1OCCCOc1c(Cl)cc(C)cc1Cl`, the cell number change is 4.89%. Further, the AC50 under setting [1] is 6.51 µM [rising, single point]. For the same compound, under setting [2], the AC50 is 16.4 µM [rising, partial curve].

For the origin of these results see PubChem BioAssay AID2685 (National Center for Advancing Translational Sciences (NCATS), 2010).
